Assay results taken from PubChem BioAssay (EPA / NIEHS).
Where “and” joins values, the source holds several entries; their conditions need not be identical. Equal entries are not always repeated. The shares of active, inactive and inconclusive entries below differ from those in the screen. For part of these data: Potencies of inconclusive entries are doubtful fits and often do not repeat. Calls of active or inactive are those of the source. How the source made its calls: active means hit-call score of the fitted dose curve at least 0.9, where 1 is the maximum; inconclusive means response in the unintended direction; inactive means score below 0.9.

Protein sequences, listed by entry. Tags and fused reporters are not part of them. Lines headed by an entry give the natural chain unless they say otherwise; changes in a name come on top.
UniProt Q96RI1: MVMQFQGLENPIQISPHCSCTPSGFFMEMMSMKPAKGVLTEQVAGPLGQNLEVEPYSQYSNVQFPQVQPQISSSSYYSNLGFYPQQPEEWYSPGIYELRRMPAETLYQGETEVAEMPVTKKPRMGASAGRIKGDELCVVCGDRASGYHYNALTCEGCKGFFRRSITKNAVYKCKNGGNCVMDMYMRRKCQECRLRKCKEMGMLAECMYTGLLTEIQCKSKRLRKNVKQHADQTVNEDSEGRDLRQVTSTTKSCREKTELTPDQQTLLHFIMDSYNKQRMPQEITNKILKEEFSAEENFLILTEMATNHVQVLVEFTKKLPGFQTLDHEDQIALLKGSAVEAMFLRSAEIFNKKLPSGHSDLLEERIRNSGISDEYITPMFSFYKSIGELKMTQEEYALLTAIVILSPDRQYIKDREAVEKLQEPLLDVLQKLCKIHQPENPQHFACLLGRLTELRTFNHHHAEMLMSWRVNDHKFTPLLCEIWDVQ
UniProt P60484: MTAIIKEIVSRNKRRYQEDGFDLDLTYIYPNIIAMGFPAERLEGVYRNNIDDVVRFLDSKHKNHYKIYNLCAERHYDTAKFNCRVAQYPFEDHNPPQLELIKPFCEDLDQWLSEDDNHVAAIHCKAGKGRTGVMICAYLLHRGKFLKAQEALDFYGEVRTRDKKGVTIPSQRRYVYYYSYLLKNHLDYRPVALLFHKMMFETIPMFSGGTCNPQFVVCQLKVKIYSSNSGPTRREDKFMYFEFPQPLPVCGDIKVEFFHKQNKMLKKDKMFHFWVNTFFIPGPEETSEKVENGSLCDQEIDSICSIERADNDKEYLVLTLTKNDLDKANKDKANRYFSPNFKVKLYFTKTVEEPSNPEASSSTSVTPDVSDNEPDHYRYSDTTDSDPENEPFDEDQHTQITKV
UniProt P04406: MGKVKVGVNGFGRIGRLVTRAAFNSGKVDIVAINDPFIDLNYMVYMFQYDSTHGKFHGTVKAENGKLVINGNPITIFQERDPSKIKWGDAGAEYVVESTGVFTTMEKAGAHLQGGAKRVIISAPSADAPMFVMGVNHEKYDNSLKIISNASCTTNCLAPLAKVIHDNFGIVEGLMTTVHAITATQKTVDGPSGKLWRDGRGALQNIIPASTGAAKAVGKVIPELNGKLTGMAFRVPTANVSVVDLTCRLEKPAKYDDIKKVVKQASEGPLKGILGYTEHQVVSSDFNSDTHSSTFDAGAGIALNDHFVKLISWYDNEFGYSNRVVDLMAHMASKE
UniProt P33261, whole entry, looked up: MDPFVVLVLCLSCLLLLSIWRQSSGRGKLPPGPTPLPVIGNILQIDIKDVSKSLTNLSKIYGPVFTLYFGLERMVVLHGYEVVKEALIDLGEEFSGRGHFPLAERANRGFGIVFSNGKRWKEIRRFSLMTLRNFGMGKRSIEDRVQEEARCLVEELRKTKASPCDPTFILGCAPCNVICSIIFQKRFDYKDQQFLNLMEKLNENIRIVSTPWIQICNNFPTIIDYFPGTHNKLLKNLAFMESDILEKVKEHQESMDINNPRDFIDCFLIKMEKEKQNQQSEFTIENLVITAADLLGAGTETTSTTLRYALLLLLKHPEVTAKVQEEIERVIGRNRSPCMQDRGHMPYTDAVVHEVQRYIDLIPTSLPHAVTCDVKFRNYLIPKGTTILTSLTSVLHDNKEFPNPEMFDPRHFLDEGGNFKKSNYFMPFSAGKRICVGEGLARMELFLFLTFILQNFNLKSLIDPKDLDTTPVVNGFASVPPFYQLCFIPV
UniProt P11712, whole entry, looked up: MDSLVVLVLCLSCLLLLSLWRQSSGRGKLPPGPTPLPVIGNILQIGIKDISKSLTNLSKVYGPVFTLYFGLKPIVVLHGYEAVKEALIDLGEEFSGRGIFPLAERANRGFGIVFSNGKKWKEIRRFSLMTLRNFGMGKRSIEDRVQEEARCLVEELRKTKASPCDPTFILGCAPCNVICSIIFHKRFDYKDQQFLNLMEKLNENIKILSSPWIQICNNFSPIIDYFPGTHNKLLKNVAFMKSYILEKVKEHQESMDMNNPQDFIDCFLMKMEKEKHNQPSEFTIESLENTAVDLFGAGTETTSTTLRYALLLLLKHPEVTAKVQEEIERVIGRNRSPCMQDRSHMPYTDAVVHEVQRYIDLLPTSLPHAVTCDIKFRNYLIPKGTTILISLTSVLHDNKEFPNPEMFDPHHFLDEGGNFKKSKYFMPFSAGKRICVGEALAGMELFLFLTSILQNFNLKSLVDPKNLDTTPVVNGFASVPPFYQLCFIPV
UniProt Q9UNQ0: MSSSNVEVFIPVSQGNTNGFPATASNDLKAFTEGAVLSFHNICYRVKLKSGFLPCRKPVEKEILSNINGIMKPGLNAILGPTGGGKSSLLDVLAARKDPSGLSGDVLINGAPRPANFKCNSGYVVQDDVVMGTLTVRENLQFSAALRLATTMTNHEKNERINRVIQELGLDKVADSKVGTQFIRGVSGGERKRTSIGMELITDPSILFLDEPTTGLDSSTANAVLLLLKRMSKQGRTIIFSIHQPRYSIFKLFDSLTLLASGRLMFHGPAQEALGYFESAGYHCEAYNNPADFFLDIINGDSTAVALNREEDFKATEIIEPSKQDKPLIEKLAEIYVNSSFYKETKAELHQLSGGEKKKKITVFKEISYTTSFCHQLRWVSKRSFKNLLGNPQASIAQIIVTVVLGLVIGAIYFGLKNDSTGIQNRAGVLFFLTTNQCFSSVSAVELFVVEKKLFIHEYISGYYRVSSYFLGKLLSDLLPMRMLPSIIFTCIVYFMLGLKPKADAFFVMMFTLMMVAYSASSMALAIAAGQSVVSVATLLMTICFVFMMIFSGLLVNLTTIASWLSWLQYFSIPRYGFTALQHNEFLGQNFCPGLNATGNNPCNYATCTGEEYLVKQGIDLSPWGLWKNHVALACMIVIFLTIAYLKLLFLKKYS
UniProt P62508: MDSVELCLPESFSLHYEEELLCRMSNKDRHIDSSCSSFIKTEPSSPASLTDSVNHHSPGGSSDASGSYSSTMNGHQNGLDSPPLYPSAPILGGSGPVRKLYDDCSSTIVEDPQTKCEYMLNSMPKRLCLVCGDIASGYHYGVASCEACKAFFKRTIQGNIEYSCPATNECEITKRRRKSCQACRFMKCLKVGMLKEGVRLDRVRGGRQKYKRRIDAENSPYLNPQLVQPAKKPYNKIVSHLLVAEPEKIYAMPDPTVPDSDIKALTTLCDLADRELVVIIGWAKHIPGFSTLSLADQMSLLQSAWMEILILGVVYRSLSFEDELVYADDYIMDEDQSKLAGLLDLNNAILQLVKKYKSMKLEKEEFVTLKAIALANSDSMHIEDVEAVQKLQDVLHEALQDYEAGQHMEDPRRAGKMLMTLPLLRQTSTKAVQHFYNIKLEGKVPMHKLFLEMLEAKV

How the values were obtained:
[1] = target: Bile acid receptor (Homo sapiens) (UniProt Q96RI1); experiment: OT_FXR_FXRSRC1_1440: Odyssey Thera (OT) 24-hour HEK293T Protein-Complementation Assay for Farnesoid X receptor/SRC-1 Co-activator (AID 2283384)
Method in brief: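 Compounds are applied to human kidney HEK293T cells expressing bait and prey fused to reporter protein fragments; after 24 h, reconstituted reporter fluorescence is measured. Activity is fitted as signal gain over DMSO.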

[2] = ACEA_AR_antagonist_AUC_viability: ACEA Biosciences xCELLigence Real-Time Cell Analysis on Androgen Receptor Antagonism for Viability (AID 2283776);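 further: 22Rv1 human prostate cancer cells growing on impedance electrode plates; area under impedance growth curve at 80 h after dosing as viability; hits lower the growth signal relative to DMSO meaning cytotoxicity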
Method in brief: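 Viability endpoint from label-free cell-index monitoring: 22Rv1 cultures treated with an eight-point 1:4 dilution series starting at 100 uM final, AUC at 80 h fitted against DMSO.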

[3] = target: human Phosphatase and Tensin Homolog (PTEN), PTEN (gene 5728) (UniProt P60484); experiment: NVS_ENZ_hPTEN: NovaScreen (NVS) Enzymatic Assay for human Phosphatase and Tensin Homolog (PTEN) (AID 2283203)
Method in brief: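 Cell-free recombinant human PTEN with fluorescent substrate; product separated by electrophoretic mobility shift and read by fluorescence 1 h after dosing. Primary screen in duplicate at 25 uM, actives followed in concentration series versus DMSO.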

[4] = read-out: organic anion transporter (SLCO1B1), SLCO1B1 (gene 10599); experiment: CLD_SLCO1B1_6hr: CellzDirect (CLD) Gene Expression Assay for organic anion transporter (SLCO1B1) at 6 hours (AID 2283668);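 further: active means mRNA induction above DMSO baseline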
Method in brief: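 Primary human hepatocytes dosed daily with test chemicals (multiple concentrations) in 0.2% DMSO vehicle; harvested at 6 h. SLCO1B1 mRNA quantified by qNPA chemiluminescence, fitted as gain-of-signal versus DMSO; cytotoxicity from phase-contrast morphology flagged alongside.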

[5] = CLD_ACTIN_24hr: CellzDirect (CLD) Gene Expression Assay for Baseline Control (Actin) at 24 hours (AID 2283670)
Method in brief: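 Primary human hepatocytes dosed over multiple concentrations with 0.2% DMSO vehicle; actin mRNA measured at 24 h by qNPA chemiluminescence. Background control endpoint, fitted as gain of signal versus DMSO.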

[6] = read-out: Glyceraldehyde-3-phosphate dehydrogenase (Homo sapiens) (UniProt P04406); experiment: CLD_GAPDH_6hr: CellzDirect (CLD) Gene Expression Assay for Baseline Control (Glyceraldehyde 3-phosphate dehydrogenase) at 6 hours (AID 2283681)
Method in brief: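 Primary human hepatocytes from two donor preparations, dosed at multiple concentrations with 0.2% DMSO vehicle; GAPDH mRNA measured 6 h after dosing by chemiluminescent quantitative nuclease protection assay (qNPA) on denatured lysates. Serves as background control; cytotoxicity annotated by morphology.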

[7] = read-out: HMG-CoA synthase (HMGCS2), HMGCS2 (gene 3158); experiment: CLD_HMGCS2_6hr: CellzDirect (CLD) Gene Expression Assay for HMG-CoA synthase (HMGCS2) at 6 hours (AID 2283682);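 further: actives raise HMGCS2 transcript above the 0.2% DMSO vehicle baseline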
Method in brief: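 Primary human hepatocytes dosed daily with fresh chemical, 0.2% DMSO vehicle; HMGCS2 mRNA measured at 6 h by qNPA chemiluminescence. Gain of signal fitted against DMSO; cytotoxicity flagged from phase-contrast morphology.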

[8] = read-out: Glyceraldehyde-3-phosphate dehydrogenase (Homo sapiens) (UniProt P04406); experiment: CLD_GAPDH_24hr: CellzDirect (CLD) Gene Expression Assay for Baseline Control (Glyceraldehyde 3-phosphate dehydrogenase) at 24 hours (AID 2283692)
Method in brief: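 Primary human hepatocytes (two donor preparations) dosed daily for two days, 0.2% DMSO vehicle; GAPDH mRNA measured at 24 h by qNPA chemiluminescence as a background control, gain-of-signal fitted against DMSO.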

[9] = read-out: ABC Transporter (ABCB11), ABCB11 (gene 8647); experiment: CLD_ABCB11_48hr: CellzDirect (CLD) Gene Expression Assay for ABC Transporter (ABCB11) at 48 hours (AID 2283697)
Method in brief: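 Primary human hepatocytes from two donor preparations dosed daily for two days at multiple concentrations; 0.2% DMSO vehicle. ABCB11 mRNA at 48 h by quantitative nuclease protection assay, chemiluminescence; fitted for induction versus DMSO.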

[10] = read-out: Cytochrome P450 2C19 (Homo sapiens) (UniProt P33261); experiment: CLD_CYP2C19_48hr: CellzDirect (CLD) Gene Expression Assay for xenobiotic metabolism (CYP2C19) at 48 hours (AID 2283700)
Method in brief: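 Primary human hepatocytes (two donor preparations) dosed daily for two days, harvested at 48 h; CYP2C19 mRNA induction measured by qNPA chemiluminescence. Gain-of-signal fitted relative to 0.2% DMSO vehicle as baseline.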

[11] = read-out: HMG-CoA synthase (HMGCS2), HMGCS2 (gene 3158); experiment: CLD_HMGCS2_48hr: CellzDirect (CLD) Gene Expression Assay for HMG-CoA synthase (HMGCS2) at 48 hours (AID 2283711)
Method in brief: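 Primary human hepatocytes from two donors dosed daily for two days, 0.2% DMSO vehicle. HMGCS2 mRNA measured 48 h after dosing by quantitative nuclease protection assay with chemiluminescent read-out; induction fitted relative to DMSO, cytotoxicity flagged by microscopy.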

[12] = read-out: Cytochrome P450 2C9 (Homo sapiens) (UniProt P11712); experiment: CLD_CYP2C9_24hr: CellzDirect (CLD) Gene Expression Assay for xenobiotic metabolism (CYP2C9) at 24 hours (AID 2283688)
Method in brief: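 Primary human hepatocytes from two donor preparations, dosed daily for two days at multiple concentrations; vehicle 0.2% DMSO. CYP2C9 mRNA induction at 24 h measured by qNPA chemiluminescence relative to DMSO; cytotoxicity annotated from morphology.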

[13] = read-out: Broad substrate specificity ATP-binding cassette transporter ABCG2 (Homo sapiens) (UniProt Q9UNQ0); experiment: CLD_ABCG2_48hr: CellzDirect (CLD) Gene Expression Assay for ABC Transporter (ABCG2) at 48 hours (AID 2283704);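 further: potency for induction of ABCG2 mRNA above the DMSO baseline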
Method in brief: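 Primary human hepatocytes from two donors, dosed daily for 2 days, 0.2% DMSO vehicle, several concentrations. ABCG2 mRNA at 48 h by qNPA chemiluminescence, gain fitted versus DMSO; cytotoxicity flagged by morphology.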

[14] = read-out: organic anion transporter (SLCO1B1), SLCO1B1 (gene 10599); experiment: CLD_SLCO1B1_48hr: CellzDirect (CLD) Gene Expression Assay for organic anion transporter (SLCO1B1) at 48 hours (AID 2283707)
Method in brief: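 Primary human hepatocytes from two donor preparations dosed daily for two days with multiple concentrations, 0.2% DMSO vehicle. SLCO1B1 mRNA at 48 h by quantitative nuclease protection assay, chemiluminescence; gain-of-signal fitted versus DMSO.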

[15] = target: Estrogen-related receptor gamma (Homo sapiens) (UniProt P62508); experiment: ATG_ERRg_TRANS: Attagene TRANS-FACTORIAL HepG2 Assay for human Estrogen-Related Receptor gamma (ERRg) (AID 2282977); conditions: HepG2 Attagene TRANS reporter, ERRg transactivation;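 further: hits increase reporter signal over DMSO so potencies reflect activators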
Method in brief: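 Transfect HepG2 with multiple GAL4-UAS reporter transcription units; dose chemicals 24 h; isolate RNA, reverse-transcribe with oligo(dT), PCR-amplify, label with 6-FAM, digest with HpaI; size fragments by capillary electrophoresis. DMSO serves as negative control.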

[16] = Tanguay_ZF_120hpf_NC_legacy: (Legacy) Oregon State University Tanguay Lab 120 Hour Post-fertilization zebrafish Assay for Notochord and Tail Malformation (AID 2283656)
Method in brief: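 Dechorionated Tropical 5D wild-type zebrafish embryos, one per well from 6 hpf, statically exposed to 120 hpf at 28C in 0.64% DMSO final. Notochord distortion scored present/absent by brightfield; dead embryos excluded.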

[17] = read-out: Glyceraldehyde-3-phosphate dehydrogenase (Homo sapiens) (UniProt P04406); experiment: CLD_GAPDH_48hr: CellzDirect (CLD) Gene Expression Assay for Baseline Control (Glyceraldehyde 3-phosphate dehydrogenase) at 48 hours (AID 2283706)
Method in brief: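 Primary human hepatocytes dosed daily for two days with fresh chemical at multiple concentrations, 0.2% DMSO vehicle; GAPDH mRNA measured at 48 h by quantitative nuclease protection assay with chemiluminescence, fitted upward relative to DMSO as background control.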

[18] = CCTE_Deisenroth_AIME_384WELL_CTox_Inactive: Cytotoxicity Assessment (CTOX) in CCTE's 384-well Estrogen Receptor Transactivation Assay without AIME metabolic competence (metabolism negative), Deisenroth Lab (AID 2284039);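 further: cell viability via live-cell protease substrate cleaved to fluorescent probe; cells exposed 24 h to medium preincubated 2 h with alginate-water beads without S9; loss of fluorescence signal means loss of viability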
Method in brief: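 Fluorescence from a live-cell protease substrate, read after 24 h in VM7Luc4E2 cells, indicated viability. Test medium came from a 2 h AIME step without hepatic S9 (alginate-water microspheres); concentrations spanned 0.002 - 200 uM, single technical replicate per run.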

[19] = ATG_XTT_Cytotoxicity: Cytotoxicity Assessment in the Attagene TRANS-FACTORIAL HepG2 Assay (AID 2283584);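 further: XTT signal for cell number as viability in transfected HepG2 cells; cells exposed to compound for 24 h before reading; active means loss of viability signal versus DMSO baseline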
Method in brief: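 Transfect HepG2 with GAL4-UAS reporter units, dose compound, incubate 24 h, then measure viable cell number by XTT. Fit concentration response against DMSO baseline.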

Measured: AC50

CCOC(=O)[C@]1(c2ccccc2)Oc2ccccc2[C@@H]1N
active: [2] 65 µM
inactive: [1]

CCCCCCCCCCCC#N
inactive: [3]

CCOC(=O)CC(SP(=O)(OC)OC)C(=O)OCC (centres undefined)
inactive: [9]
inconclusive: [4] 20 µM | [5] 20 µM | [6] 20 µM | [7] 20 µM | [8] 20 µM | [10] 20 µM | [11] 4.8 µM

CCCC(=NOCC)C1=C(O)CC(CC(C)SCC)CC1=O (centres undefined)
inconclusive: [5] 20 µM | [7] 20 µM | [13] 20 µM
inactive: [4] | [12] | [9] | [14] | [11]
active: [3] 18.2 µM

Nc1nc(N)nc(NC2CC2)n1
inconclusive: [16] 73.4 µM | [4] 20 µM | [9] 2.55 µM | [10] 30.3 µM | [13] 20 µM | [14] 7.94 µM | [11] 0.00267 µM
inactive: [15] | [5] | [7] | [12] | [8] | [17] | [18]

CCOP(=S)(OCC)Oc1nc(Cl)n(C(C)C)n1
inactive: [12]
inconclusive: [4] 20 µM | [5] 1.9 µM | [6] 0.216 µM | [7] 20 µM | [8] 1.48 µM | [10] 20 µM | [13] 20 µM | [17] 3 µM | [14] 20 µM | [11] 5.9 µM

OCCCl
inconclusive: [1] 50 µM | [19] 100 µM

Cc1ccc(C)c2ccccc12
inconclusive: [2] 16.6 µM
inactive: [1]

C[C@@H]1C[C@@H]([C@H](O)CC2CC(=O)NC(=O)C2)C(=O)[C@@H](C)C1
active: [2] 1.35 µM
inactive: [15] | [18]
inconclusive: [15] 25.1 µM and 39.2 µM and 1.85 µM | [1] 7.89 µM and 12.9 µM and 12.7 µM
